From the supplement of paper PMC10849652 come the findings set out here.

Chains of the proteins cited; added tags and fusions are not shown. Lines headed by an entry give the natural chain unless they say otherwise; changes in a name come on top.
UniProt Q8NB15: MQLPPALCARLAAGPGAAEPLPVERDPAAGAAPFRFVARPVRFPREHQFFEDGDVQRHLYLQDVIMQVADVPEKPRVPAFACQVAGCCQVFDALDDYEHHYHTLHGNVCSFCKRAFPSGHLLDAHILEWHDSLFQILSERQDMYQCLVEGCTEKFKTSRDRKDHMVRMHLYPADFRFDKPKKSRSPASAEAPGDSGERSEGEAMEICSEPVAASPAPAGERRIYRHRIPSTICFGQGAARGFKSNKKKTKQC
UniProt Q96KM6: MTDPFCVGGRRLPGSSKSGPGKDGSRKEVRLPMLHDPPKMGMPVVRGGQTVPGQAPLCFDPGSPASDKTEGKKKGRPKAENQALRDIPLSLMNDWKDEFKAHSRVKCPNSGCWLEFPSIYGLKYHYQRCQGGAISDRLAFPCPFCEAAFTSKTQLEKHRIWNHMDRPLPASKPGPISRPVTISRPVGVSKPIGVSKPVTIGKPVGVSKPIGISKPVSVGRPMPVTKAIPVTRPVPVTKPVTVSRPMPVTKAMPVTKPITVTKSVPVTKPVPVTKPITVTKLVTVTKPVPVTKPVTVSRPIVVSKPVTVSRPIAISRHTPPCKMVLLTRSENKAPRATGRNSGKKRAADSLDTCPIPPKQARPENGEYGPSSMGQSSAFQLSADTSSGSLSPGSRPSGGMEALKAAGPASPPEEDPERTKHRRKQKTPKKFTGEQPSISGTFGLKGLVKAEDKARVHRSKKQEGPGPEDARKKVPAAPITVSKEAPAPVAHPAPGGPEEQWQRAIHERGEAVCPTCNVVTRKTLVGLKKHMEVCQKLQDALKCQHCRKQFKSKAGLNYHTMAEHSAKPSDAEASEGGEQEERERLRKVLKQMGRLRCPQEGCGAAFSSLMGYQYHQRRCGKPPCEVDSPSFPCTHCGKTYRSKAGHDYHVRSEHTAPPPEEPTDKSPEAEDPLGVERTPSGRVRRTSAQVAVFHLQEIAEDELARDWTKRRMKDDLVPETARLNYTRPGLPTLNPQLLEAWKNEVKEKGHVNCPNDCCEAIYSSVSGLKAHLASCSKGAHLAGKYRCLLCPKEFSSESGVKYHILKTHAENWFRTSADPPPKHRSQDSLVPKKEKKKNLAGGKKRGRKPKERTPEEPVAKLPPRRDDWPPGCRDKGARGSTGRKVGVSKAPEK
UniProt O00488: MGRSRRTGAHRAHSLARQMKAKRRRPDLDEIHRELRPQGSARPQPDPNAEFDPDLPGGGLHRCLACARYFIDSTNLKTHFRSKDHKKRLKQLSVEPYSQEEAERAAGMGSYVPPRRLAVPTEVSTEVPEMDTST
UniProt O15014: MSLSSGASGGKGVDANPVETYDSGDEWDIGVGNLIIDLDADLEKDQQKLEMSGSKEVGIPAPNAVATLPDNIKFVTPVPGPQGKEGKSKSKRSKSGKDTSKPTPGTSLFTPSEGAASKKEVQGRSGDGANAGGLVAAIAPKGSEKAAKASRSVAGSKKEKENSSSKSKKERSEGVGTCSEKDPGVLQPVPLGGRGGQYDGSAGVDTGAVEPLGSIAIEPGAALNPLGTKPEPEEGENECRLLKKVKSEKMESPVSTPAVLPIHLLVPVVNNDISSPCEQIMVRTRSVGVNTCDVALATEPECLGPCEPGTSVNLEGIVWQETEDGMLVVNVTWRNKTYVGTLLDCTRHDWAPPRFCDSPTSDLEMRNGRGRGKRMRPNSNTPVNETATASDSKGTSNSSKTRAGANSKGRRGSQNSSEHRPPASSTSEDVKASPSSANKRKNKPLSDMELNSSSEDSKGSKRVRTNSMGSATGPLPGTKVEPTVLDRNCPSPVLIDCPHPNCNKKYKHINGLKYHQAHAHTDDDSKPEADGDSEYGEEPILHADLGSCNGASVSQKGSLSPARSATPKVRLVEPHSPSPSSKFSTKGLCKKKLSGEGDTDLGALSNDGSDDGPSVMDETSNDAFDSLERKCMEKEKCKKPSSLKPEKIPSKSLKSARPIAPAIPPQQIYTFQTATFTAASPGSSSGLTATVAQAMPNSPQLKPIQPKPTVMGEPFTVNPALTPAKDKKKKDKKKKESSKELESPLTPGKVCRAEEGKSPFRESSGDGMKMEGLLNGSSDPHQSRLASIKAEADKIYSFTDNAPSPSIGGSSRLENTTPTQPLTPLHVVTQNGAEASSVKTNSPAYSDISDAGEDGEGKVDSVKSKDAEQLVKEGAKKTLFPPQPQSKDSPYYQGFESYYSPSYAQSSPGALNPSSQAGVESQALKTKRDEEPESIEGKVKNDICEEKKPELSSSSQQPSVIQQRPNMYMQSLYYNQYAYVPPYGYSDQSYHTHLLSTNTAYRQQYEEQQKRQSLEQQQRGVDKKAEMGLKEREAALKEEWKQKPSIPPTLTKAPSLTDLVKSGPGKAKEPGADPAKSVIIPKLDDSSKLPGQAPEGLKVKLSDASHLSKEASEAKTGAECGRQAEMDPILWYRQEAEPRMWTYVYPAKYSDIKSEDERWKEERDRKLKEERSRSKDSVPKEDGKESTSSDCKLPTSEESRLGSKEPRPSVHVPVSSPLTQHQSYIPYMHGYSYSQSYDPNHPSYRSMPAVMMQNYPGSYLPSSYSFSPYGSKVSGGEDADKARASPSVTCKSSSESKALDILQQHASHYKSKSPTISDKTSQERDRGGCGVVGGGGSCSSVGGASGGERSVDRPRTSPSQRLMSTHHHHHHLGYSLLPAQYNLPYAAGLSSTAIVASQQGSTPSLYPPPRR
UniProt Q5T7W0: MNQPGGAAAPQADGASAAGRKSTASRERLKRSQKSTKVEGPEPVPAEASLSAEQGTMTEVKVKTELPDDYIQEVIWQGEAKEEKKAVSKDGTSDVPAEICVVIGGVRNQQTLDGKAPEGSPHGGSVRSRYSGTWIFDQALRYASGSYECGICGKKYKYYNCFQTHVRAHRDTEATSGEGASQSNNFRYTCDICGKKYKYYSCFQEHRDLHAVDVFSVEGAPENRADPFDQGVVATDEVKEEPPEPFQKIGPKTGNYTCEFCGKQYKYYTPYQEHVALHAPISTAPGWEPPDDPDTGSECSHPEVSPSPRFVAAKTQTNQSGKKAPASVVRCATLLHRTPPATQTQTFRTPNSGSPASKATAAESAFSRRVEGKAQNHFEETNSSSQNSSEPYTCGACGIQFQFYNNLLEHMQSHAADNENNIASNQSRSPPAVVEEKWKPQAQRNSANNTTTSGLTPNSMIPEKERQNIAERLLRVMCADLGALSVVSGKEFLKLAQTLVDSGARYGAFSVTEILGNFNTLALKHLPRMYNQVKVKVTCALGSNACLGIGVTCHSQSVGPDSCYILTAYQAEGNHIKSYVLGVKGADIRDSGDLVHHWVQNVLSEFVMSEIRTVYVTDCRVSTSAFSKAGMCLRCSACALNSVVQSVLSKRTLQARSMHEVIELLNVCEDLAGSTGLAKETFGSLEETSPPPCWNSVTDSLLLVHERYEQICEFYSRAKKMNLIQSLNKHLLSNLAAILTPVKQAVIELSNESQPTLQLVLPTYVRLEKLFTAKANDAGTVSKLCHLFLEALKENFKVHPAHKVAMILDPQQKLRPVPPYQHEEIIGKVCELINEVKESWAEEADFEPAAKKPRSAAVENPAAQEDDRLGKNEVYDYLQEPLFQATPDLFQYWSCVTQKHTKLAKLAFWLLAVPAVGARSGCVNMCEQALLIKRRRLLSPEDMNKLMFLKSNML
UniProt Q9UEG4: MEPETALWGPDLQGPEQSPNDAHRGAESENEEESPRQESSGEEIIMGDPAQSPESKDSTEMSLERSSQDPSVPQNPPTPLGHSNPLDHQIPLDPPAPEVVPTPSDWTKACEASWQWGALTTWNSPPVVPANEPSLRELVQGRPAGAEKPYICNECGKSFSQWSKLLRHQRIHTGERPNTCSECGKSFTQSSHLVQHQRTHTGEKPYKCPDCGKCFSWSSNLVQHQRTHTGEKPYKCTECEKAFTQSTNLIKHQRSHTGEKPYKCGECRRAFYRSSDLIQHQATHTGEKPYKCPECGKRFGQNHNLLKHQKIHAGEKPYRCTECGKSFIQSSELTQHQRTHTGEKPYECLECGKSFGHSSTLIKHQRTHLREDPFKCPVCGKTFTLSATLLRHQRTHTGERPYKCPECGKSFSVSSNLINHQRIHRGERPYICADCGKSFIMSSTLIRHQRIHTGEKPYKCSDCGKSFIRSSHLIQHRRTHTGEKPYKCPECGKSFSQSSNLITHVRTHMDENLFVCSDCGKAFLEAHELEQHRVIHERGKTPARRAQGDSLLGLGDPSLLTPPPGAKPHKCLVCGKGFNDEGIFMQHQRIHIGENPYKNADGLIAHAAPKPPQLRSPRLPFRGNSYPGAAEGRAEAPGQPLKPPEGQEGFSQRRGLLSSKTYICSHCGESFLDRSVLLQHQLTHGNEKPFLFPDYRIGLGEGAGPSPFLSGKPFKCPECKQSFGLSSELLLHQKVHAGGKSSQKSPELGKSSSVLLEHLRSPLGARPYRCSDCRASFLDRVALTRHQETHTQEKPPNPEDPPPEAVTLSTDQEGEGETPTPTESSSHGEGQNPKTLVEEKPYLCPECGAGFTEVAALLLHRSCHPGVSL
UniProt Q9UK33: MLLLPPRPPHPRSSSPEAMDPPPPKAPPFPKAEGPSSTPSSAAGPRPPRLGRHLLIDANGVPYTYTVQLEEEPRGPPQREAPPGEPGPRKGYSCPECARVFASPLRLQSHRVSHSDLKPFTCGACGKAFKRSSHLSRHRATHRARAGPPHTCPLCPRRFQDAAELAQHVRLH
UniProt Q9UID6: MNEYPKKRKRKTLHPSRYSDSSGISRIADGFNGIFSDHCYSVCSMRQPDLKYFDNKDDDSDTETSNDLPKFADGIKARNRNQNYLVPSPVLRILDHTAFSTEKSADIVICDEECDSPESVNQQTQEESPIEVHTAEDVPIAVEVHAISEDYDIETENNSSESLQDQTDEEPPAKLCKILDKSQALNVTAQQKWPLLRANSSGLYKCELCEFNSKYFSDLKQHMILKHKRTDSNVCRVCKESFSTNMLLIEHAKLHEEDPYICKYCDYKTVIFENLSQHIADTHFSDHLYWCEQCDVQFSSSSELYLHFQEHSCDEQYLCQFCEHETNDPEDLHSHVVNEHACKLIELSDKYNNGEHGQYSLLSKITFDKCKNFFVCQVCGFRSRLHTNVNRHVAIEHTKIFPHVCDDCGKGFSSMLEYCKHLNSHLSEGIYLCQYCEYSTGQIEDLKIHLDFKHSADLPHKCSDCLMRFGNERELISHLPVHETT
UniProt Q9Y4E5: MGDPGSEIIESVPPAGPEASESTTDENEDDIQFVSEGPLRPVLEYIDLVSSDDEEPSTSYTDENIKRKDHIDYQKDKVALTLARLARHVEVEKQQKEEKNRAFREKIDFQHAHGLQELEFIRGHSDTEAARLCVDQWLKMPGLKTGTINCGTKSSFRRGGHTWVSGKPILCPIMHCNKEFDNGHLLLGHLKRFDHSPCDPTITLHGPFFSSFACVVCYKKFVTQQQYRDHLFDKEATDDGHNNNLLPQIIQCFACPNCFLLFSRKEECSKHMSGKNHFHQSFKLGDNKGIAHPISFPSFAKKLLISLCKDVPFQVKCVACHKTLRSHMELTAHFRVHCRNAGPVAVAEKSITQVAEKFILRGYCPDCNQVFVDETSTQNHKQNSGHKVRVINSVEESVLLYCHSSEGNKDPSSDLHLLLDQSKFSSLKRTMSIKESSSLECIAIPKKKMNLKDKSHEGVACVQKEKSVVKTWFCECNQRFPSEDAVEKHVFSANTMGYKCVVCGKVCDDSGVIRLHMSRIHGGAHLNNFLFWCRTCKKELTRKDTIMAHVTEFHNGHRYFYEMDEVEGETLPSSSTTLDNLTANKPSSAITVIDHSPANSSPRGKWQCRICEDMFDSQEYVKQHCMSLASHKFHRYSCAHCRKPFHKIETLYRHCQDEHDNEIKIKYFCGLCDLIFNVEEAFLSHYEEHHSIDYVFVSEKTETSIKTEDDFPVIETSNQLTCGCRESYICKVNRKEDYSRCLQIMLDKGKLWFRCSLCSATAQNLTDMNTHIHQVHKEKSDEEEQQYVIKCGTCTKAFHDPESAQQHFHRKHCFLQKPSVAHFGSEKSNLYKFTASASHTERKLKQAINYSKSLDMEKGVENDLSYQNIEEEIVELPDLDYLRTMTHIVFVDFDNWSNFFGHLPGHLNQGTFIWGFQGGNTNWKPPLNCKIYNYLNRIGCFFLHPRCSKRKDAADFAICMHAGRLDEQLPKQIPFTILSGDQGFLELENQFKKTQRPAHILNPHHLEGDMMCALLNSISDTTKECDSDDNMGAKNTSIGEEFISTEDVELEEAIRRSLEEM
UniProt Q9P0T4: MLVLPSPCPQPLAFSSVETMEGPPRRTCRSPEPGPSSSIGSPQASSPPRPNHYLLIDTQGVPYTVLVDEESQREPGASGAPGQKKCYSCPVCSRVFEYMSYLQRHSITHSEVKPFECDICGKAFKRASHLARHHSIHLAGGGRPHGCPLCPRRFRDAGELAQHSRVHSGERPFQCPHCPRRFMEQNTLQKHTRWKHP

Experiment in all cases: log2 fold change, soluble protein after heating vs DMSO (PISA); higher = thermal stabilisation; K562 cells, 10 uM, 30 min; active = over 0.2 and 3.5 SD of the protein, either way, in both replicates (recomputed)
One assay concerns the target ZNF428 (UniProt M0QXZ5). A digest of the protocol:
(§1)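 Values are thermal stability changes relative to control samples and are taken from duplicates. They are stated as log2 fold changes. Before quantification by TMTpro 16plex LC-MS/MS with equalised channel sums, K562 cells at 2×10^6 cells/mL were treated with 10 μM compound for 30 min, heated in aliquots for 3 min across 48°C-58°C, pooled, extracted in PBS with 0.5% NP-40 at 4°C, and centrifuged at 21,000xg for 90 min to give the soluble supernatant.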

The target in the next assay is ZNF511 isoform 1 (UniProt Q8NB15). In short, it runs like this: as §1
The next assay concerns the target ZNF512B (UniProt Q96KM6). A digest of the protocol:
as §1

The next assay concerns the target ZNF579 (UniProt Q8NAF0). In short, it runs like this:
as §1

Another assay concerns the target ZNF593 (UniProt O00488). In short, it runs like this:
as §1

A further assay deals with ZNF598 (UniProt Q86UK7). In short, it runs like this: as §1
The target of another assay is ZNF609 (UniProt O15014). In short, it runs like this:
as §1

Assay [1] has as its target ZNF618 (UniProt Q5T7W0). In short, it runs like this: as §1
Another assay has as its target ZNF618 isoform 2 (UniProt Q5T7W0). A digest of the protocol:
as §1

In a further assay the target is ZNF622 (UniProt Q969S3). In short, it runs like this: as §1
The next assay has as its target ZNF629 (UniProt Q9UEG4). A digest of the protocol: as §1
In another assay the target is ZNF638 (UniProt Q14966). In short, it runs like this: as §1
The next assay addresses ZNF580 (UniProt Q9UK33). In short, it runs like this:
as §1

For another assay, the target named is ZNF639 (UniProt Q9UID6). A digest of the protocol:
as §1

For a further assay, the target named is ZNF451 (UniProt Q9Y4E5). In short, it runs like this: as §1
The target of a further assay is ZNF512 (UniProt Q96ME7). In short, it runs like this: as §1
A further assay has as its target ZNF581 (UniProt Q9P0T4). A digest of the protocol:
as §1

The target in assay [2] is ZNF618 (UniProt B1ALC2). A digest of the protocol:
as §1

Structures are written as SMILES. Some of the results follow.

With `Cc1ccc(C(=O)N(CCCN)[C@@H](c2nc3cc(Cl)ccc3c(=O)n2Cc2ccccc2)C(C)C)cc1` [ispinesib], the log2 fold change with ZNF428 is inactive: 0.16; in the assay with ZNF511 isoform 1 it was inactive: 0.296; with ZNF512B, inactive: -0.289; with ZNF579, inactive: 0.029; in the assay with ZNF593, inactive: -0.156; with ZNF598, inactive: -0.057. In addition, the log2 fold change was inactive: 0.014 with ZNF609; inactive: -0.105 with ZNF618 [1]; inactive: 0.095 in the assay with ZNF618 isoform 2; inactive: 0.062 with ZNF622; inactive: -0.187 with ZNF629; inactive: -0.127 in the assay with ZNF638.

With `c1cc(OCCN2CCCCC2)cc(-c2n[nH]c3ccc(-c4nnc[nH]4)cc23)c1`, the log2 fold change with ZNF428 is inactive: 0.056; with ZNF511 isoform 1, inactive: -0.043; with ZNF579, inactive: 0.078; with ZNF580, inactive: -0.083; with ZNF593, inactive: -0.119; in the assay with ZNF598, inactive: -0.087. Moreover, the log2 fold change with ZNF609 is inactive: -0.003; with ZNF618 [1], inactive: -0.005; with ZNF618 isoform 2, inactive: -0.18; with ZNF622 it was inactive: 0.092; in the assay with ZNF629, inactive: -0.116; with ZNF638, inactive: 0. Moreover, the log2 fold change with ZNF639 was inactive: 0.04.

In the case of `Cc1ccc2c(=O)c3ccccc3n(CCCN)c2c1C`, the log2 fold change is inactive: -0.145 in the assay with ZNF428; inactive: 0.17 in the assay with ZNF511 isoform 1; inactive: -0.168 with ZNF579; inactive: -0.196 with ZNF580; inactive: -0.361 with ZNF593; inactive: 0.166 in the assay with ZNF598. For the same compound, the log2 fold change in the assay with ZNF609 is inactive: 0.205; in the assay with ZNF618 [1], inactive: 0.033; with ZNF618 isoform 2, inactive: -0.113; with ZNF622 it was active: -0.285; with ZNF629, inactive: -0.325; with ZNF638, inactive: 0.004. Moreover, in the assay with ZNF639, the log2 fold change was inactive: -0.121.

Regarding `CN1CCc2c(c3ccccc3n2Cc2ccc(C(=O)NO)cc2)C1` [Tubastatin A], the log2 fold change in the assay with ZNF428 was inactive: 0.065; with ZNF511 isoform 1 it was inactive: -0.089; with ZNF579, inactive: 0.095; with ZNF580, inactive: -0.08; with ZNF593 it was inactive: 0.064; with ZNF598, inactive: 0. The log2 fold change in the assay with ZNF609 was inactive: -0.126; in the assay with ZNF618 [1], inactive: 0.023; with ZNF618 isoform 2 it was inactive: -0.009; with ZNF622, inactive: 0.018; with ZNF629 it was inactive: 0.05; in the assay with ZNF638, inactive: -0.004. The log2 fold change in the assay with ZNF639 is inactive: 0.155.

`Cc1ccc(NC(=O)c2cccc(N(C)C)c2)cc1NC(=O)c1ccc(O)cc1`: the log2 fold change with ZNF428 is inactive: 0.084; in the assay with ZNF511 isoform 1, inactive: 0.012; in the assay with ZNF512B, inactive: 0.044; with ZNF579, inactive: -0.183; with ZNF593, inactive: 0.038; with ZNF598, inactive: 0.019. Moreover, the log2 fold change with ZNF609 was inactive: 0.162; with ZNF618 [1] it was inactive: 0.002; in the assay with ZNF618 isoform 2, inactive: -0.172; with ZNF622, inactive: -0.036; with ZNF629 it was inactive: 0.129; with ZNF638, inactive: 0.064.

With `COc1cccc2cc(-c3nc([C@H]4CC[C@H](C(=O)O)CC4)n4ncnc(N)c34)[nH]c12`, the log2 fold change with ZNF428 is inactive: 0.02; with ZNF451 it was inactive: -0.234; with ZNF511 isoform 1, inactive: 0.099; in the assay with ZNF512, inactive: -0.041; in the assay with ZNF512B, inactive: -0.231; with ZNF579 it was inactive: -0.078. For the same compound, the log2 fold change with ZNF581 is inactive: 0.194; with ZNF593 it was inactive: 0.008; with ZNF598, inactive: -0.024; with ZNF609, inactive: -0.028; in the assay with ZNF618 [2] it was inactive: 0.016; with ZNF618 [1] it was inactive: 0.034. Also, the log2 fold change with ZNF618 isoform 2 is inactive: 0.061; with ZNF622, inactive: 0.01; with ZNF629, inactive: -0.213; with ZNF638, inactive: 0.104.

As to `NC1(c2ccc(-c3nc4ccn5c(=O)[nH]nc5c4cc3-c3ccccc3)cc2)CCC1`, the log2 fold change is inactive: 0.077 in the assay with ZNF428; inactive: 0.389 in the assay with ZNF451; inactive: -0.039 with ZNF511 isoform 1; inactive: 0.151 with ZNF512; inactive: 0.215 with ZNF512B; inactive: -0.061 with ZNF579. Further, the log2 fold change with ZNF581 is inactive: -0.061; in the assay with ZNF593 it was inactive: 0.254; with ZNF598, inactive: -0.05; with ZNF609 it was inactive: 0.018; with ZNF618 [2], inactive: -0.041; with ZNF618 [1] it was inactive: -0.039. Besides, the log2 fold change with ZNF618 isoform 2 was inactive: 0.105; with ZNF622, inactive: -0.019; in the assay with ZNF629, inactive: 0.186; with ZNF638, inactive: 0.18.

Consider `COC(=O)N[C@@H](C)CNc1nccc(-c2cn(C(C)C)nc2-c2cc(Cl)cc(NS(C)(=O)=O)c2F)n1` [encorafenib], for which the log2 fold change with ZNF428 was inactive: -0.033; with ZNF511 isoform 1, inactive: -0.03; with ZNF579, inactive: -0.187; with ZNF580 it was inactive: 0.143; with ZNF593 it was inactive: 0.124; in the assay with ZNF598 it was inactive: 0.003. Besides, the log2 fold change with ZNF609 was inactive: -0.082; with ZNF618 [1] it was inactive: 0.003; with ZNF618 isoform 2, inactive: 0.1; with ZNF622, inactive: 0.01; with ZNF629 it was inactive: 0.183; in the assay with ZNF638 it was inactive: -0.055. Also, the log2 fold change in the assay with ZNF639 is inactive: -0.059.

On to `O=C1NC(=O)/C(=C\c2ccc3nccnc3c2)S1`, for which the log2 fold change is inactive: 0.023 with ZNF428; inactive: 0.017 in the assay with ZNF511 isoform 1; inactive: -0.07 with ZNF579; inactive: -0.023 with ZNF593; inactive: 0 in the assay with ZNF598; inactive: -0.006 with ZNF609. The log2 fold change in the assay with ZNF618 [2] is inactive: 0.132; with ZNF618 [1], inactive: 0; with ZNF618 isoform 2, inactive: 0.017; in the assay with ZNF622 it was inactive: -0.004; with ZNF629, inactive: -0.057; in the assay with ZNF638, inactive: -0.039.

On to `CCCCN(Cc1ccc(C(=O)NO)cc1)C(=O)Nc1ccccc1` [Nexturastat A], for which the log2 fold change with ZNF428 was inactive: -0.148; in the assay with ZNF451 it was inactive: 0.503; with ZNF511 isoform 1, inactive: -0.074; with ZNF512, inactive: -0.038; with ZNF512B, inactive: 0.344; with ZNF579, inactive: 0.004. Also, the log2 fold change with ZNF593 is inactive: 0.151; with ZNF598 it was inactive: 0.044; with ZNF609, active: 0.475; with ZNF618 [1] it was inactive: -0.03; in the assay with ZNF618 isoform 2 it was inactive: 0.15; with ZNF622, inactive: -0.086. The log2 fold change with ZNF629 was inactive: 0.263; with ZNF638 it was inactive: 0.168.
